One assay addresses ETV7 (UniProt Q9Y603). As to the kind of experiment: DAPPL (digital affinity profiling via proximity ligation, sequencing). As to conditions: 10 mM Tris-HCl pH 7.5, 50 mM NaCl, 1 mM DTT, 4% glycerol, room temperature, 30 min; GST-TFs on glutathione beads, 16-mer random dsDNA library, 0.1% …; high values mean tight binding; double strand, one strand shown; scale: fold enrichment (6-mer frequency, TF over GST control).

Protein sequences, listed by entry. Tags and fused reporters are not part of them. Lines headed by an entry give the natural chain unless they say otherwise; changes in a name come on top.
UniProt Q9Y603: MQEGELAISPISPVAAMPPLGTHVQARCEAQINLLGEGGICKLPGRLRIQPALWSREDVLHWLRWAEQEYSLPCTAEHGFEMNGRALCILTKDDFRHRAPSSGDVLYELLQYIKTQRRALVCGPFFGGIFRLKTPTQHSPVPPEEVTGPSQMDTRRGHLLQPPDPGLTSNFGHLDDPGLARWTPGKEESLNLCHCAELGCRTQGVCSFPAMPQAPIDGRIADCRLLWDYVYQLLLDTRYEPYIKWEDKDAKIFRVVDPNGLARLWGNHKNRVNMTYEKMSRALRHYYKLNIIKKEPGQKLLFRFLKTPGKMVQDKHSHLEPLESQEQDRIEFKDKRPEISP
UniProt P41212: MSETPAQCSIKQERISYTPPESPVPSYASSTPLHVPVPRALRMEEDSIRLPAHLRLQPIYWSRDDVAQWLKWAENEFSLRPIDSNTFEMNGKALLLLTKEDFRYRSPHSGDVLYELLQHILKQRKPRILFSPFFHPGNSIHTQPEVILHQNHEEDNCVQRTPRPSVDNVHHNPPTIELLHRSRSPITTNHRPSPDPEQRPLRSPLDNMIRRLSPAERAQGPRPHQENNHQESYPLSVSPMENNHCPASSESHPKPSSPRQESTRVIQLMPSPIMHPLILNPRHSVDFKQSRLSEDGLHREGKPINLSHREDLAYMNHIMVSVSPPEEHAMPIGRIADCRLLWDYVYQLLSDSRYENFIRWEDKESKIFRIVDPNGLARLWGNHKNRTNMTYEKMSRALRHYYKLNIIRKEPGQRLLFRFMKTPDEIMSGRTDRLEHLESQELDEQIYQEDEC

The next assay deals with ETV6 (UniProt P41212). The description is as above. As to conditions: 10 mM Tris-HCl pH 7.5, 50 mM NaCl, 1 mM DTT, 4% glycerol, room temperature, 30 min; GST-TFs on glutathione beads, 16-mer random dsDNA library, 0.1% …; high values mean tight binding; double strand, one strand shown; scale: fold enrichment (6-mer frequency, TF over GST control).

The list shows a part of the results, in another mix than the full data. At the low end of the ranking the order means little.

Sequence TTTAGT yielded a binding signal with ETV7 of 0.992.

In the assay with ETV7, GTTATT showed a binding signal of 1.29.

For the sequence CGCTAA, the results for the binding signal with ETV7 and in the assay with ETV6 were 0.941 and 0.942, respectively.

For AGCTGA, the binding signal with ETV7 worked out at 1.09; with ETV6, 0.988.

In the case of GAGCTT, the binding signal is 0.963 with ETV7 and 0.922 with ETV6.

AGAACC: the binding signal in the assay with ETV7 was 0.986; with ETV6, 0.931.

CTTTGA: the values for the binding signal in the assay with ETV7 and with ETV6 were 1.34 and 1.25, respectively.

Turning to ACGAGC, the figures for the binding signal in the assay with ETV7 and with ETV6 were 0.943 and 0.925, respectively.

With GCTATG, the binding signal with ETV7 was found to be 1.3.

As to AATTCT, the binding signal with ETV7 was 1.26; with ETV6, 1.25.

For TCGCGG, the results for the binding signal in the assay with ETV7 and with ETV6 were 1.02 and 1, respectively.

On to TTGAAG, for which the binding signal in the assay with ETV7 came to 0.991; with ETV6 it was 0.999.

In the case of TTCGGT, the binding signal with ETV7 is 1.15.

Sequence AGTGTT yielded a binding signal with ETV7 of 1.14.

Regarding CAATTC, the values for the binding signal with ETV7 and in the assay with ETV6 were 1.24 and 1.16, respectively.

For GTCAAA, the binding signal with ETV7 worked out at 0.974; in the assay with ETV6, 0.946.

Turning to TTCTAC, the binding signal with ETV7 came to 1.54; in the assay with ETV6 it was 1.49.

Turning to CTGCAG, the binding signal worked out at 1.13 with ETV7 and 1.11 in the assay with ETV6.

For the sequence TGTCCC, the binding signal with ETV7 amounted to 1.46.

As for CTTTGT, the binding signal with ETV7 came out at 1.36.

Regarding ACAAAT, the figures for the binding signal with ETV7 and in the assay with ETV6 were 1.14 and 1.17, respectively.

With AAGTTC, the values for the binding signal with ETV7 and with ETV6 were 1.4 and 1.52, respectively.

Regarding CGCCGC, in the assay with ETV7, the binding signal was determined as 1.11.

In the case of ACTTGA, the results for the binding signal in the assay with ETV7 and with ETV6 were 1.08 and 0.919, respectively.

TCCGCC yielded a binding signal with ETV7 of 1.49.

For the sequence GTCCGC, the binding signal with ETV7 came out at 0.992.

For TATGCT, the binding signal with ETV7 came to 1.32.

AAGCCT: the figures for the binding signal with ETV7 and with ETV6 were 1.3 and 1.23, respectively.

Consider CTCTCT, for which the figures for the binding signal with ETV7 and in the assay with ETV6 were 1.56 and 1.59, respectively.

In the case of GGTTAA, the binding signal in the assay with ETV7 came out at 0.92; with ETV6, 0.886.

CAACCG: the binding signal with ETV7 worked out at 0.986.

Turning to GATTCA, the binding signal with ETV7 was determined as 1.09.

Take TCAACA: the binding signal with ETV7 came to 0.988; in the assay with ETV6, 0.946.

As for CCGTTA, the results for the binding signal with ETV7 and with ETV6 were 0.907 and 0.957, respectively.

With GAATGC, the results for the binding signal with ETV7 and with ETV6 were 1.03 and 1.01, respectively.

On to GACTTG, for which the binding signal in the assay with ETV7 came to 0.86; with ETV6, 0.853.

Regarding CAATGA, the binding signal with ETV7 was determined as 0.94; with ETV6 it was 0.966.

For AAGCAT, the binding signal with ETV7 and with ETV6 was 1.14 in each case.

Regarding CGCCTA, the binding signal came to 0.987 with ETV7 and 1.14 with ETV6.

On to TACGAG, for which the values for the binding signal in the assay with ETV7 and with ETV6 were 0.975 and 0.973, respectively.

Regarding GATACC, the values for the binding signal in the assay with ETV7 and with ETV6 were 0.924 and 0.875, respectively.

For the sequence ACACGC, the values for the binding signal with ETV7 and with ETV6 were 0.986 and 1.13, respectively.

CGGATT: the binding signal was 0.876 in the assay with ETV7 and 0.917 with ETV6.

For the sequence ACACCA, the binding signal amounted to 0.992 with ETV7 and 0.989 with ETV6.

For the sequence TGACTG, the results for the binding signal with ETV7 and with ETV6 were 0.905 and 1.06, respectively.

In the case of TGGGTG, the binding signal with ETV7 was found to be 0.978; in the assay with ETV6 it was 1.21.

Consider TATAGA, for which the binding signal in the assay with ETV7 is 1.08; with ETV6, 1.11.

For GTGGTT, the binding signal turned out to be 0.948 with ETV7 and 0.929 with ETV6.

As to GGACAT, the binding signal came to 1.23 with ETV7 and 1.18 with ETV6.

Consider AGAATG, for which the binding signal with ETV7 was determined as 0.949; with ETV6, 0.966.

Consider TACGGG, for which the binding signal with ETV7 worked out at 0.926; with ETV6, 0.855.

Regarding TCGTTG, the binding signal with ETV7 came to 0.945; in the assay with ETV6, 0.889.

Consider GAAAGC, for which the binding signal with ETV7 came out at 0.877; in the assay with ETV6, 0.91.

On to GGTTGT, for which the binding signal with ETV7 stood at 0.876; in the assay with ETV6 it was 0.881.

Consider CCCTTG, for which the binding signal was 1.18 with ETV7 and 1.17 with ETV6.

As to ACTCGG, the binding signal was found to be 1.06 with ETV7 and 0.976 in the assay with ETV6.

On to GTGTAA, for which the results for the binding signal in the assay with ETV7 and with ETV6 were 0.947 and 0.909, respectively.

With GCACAC, the binding signal came to 0.943 with ETV7 and 0.983 with ETV6.

As to AACCCC, the figures for the binding signal in the assay with ETV7 and with ETV6 were 1.11 and 1.18, respectively.

Consider TGTGGT, for which the figures for the binding signal in the assay with ETV7 and with ETV6 were 1.11 and 0.97, respectively.

On to GACCCC, for which the binding signal in the assay with ETV7 came to 0.87; in the assay with ETV6 it was 0.878.

AGTTAT: the binding signal was 0.928 with ETV7 and 0.97 with ETV6.

Take TGTGCA: the binding signal with ETV7 is 0.912; with ETV6, 1.

Consider GTATCG, for which the binding signal was found to be 0.864 in the assay with ETV7 and 0.917 with ETV6.

For CCCATA, the binding signal is 1.19 with ETV7 and 1.31 with ETV6.

Take TCACCA: the results for the binding signal with ETV7 and with ETV6 were 1.04 and 1.08, respectively.

Turning to CTCCAA, the binding signal in the assay with ETV7 came out at 1.52; with ETV6 it was 1.28.

In the case of TGCGAC, the binding signal in the assay with ETV7 was found to be 1.29; in the assay with ETV6, 1.28.

On to CTACAC, for which the binding signal with ETV7 was 1.25; with ETV6, 1.36.

As to AAAGTA, the binding signal with ETV7 stood at 1.21; with ETV6, 1.15.

On to CTATGT, for which the binding signal in the assay with ETV7 was determined as 1.3; in the assay with ETV6 it was 0.995.

Regarding GAATGA, the binding signal was found to be 0.909 in the assay with ETV7 and 1.02 with ETV6.

Take ACCCGA: the binding signal with ETV7 was found to be 1.11; with ETV6, 1.04.

Regarding CCAACT, the binding signal with ETV7 came out at 1.2; with ETV6, 1.18.

Consider GAAAGG, for which the binding signal amounted to 1.02 in the assay with ETV7 and 0.965 with ETV6.

With CAAGTT, the binding signal in the assay with ETV7 is 0.997; with ETV6, 1.09.

Take AGGTGT: the binding signal in the assay with ETV7 was 0.869; in the assay with ETV6, 0.786.

With GGGTTC, the binding signal worked out at 0.982 with ETV7 and 0.999 with ETV6.

For the sequence ACCAAG, the binding signal turned out to be 0.852 in the assay with ETV7 and 0.918 with ETV6.

As to CAACTA, the binding signal with ETV7 was 1.24; in the assay with ETV6, 1.25.

As to CATCAA, the binding signal with ETV7 was 0.923; with ETV6 it was 0.969.

With GCCGAA, the binding signal with ETV7 was 0.973; in the assay with ETV6 it was 0.983.

For AGCGAT, the results for the binding signal in the assay with ETV7 and with ETV6 were 1.09 and 0.995, respectively.

Turning to ACGCTA, the binding signal was determined as 1.17 with ETV7 and 1.08 with ETV6.

For the sequence ACGTCA, the binding signal with ETV7 is 0.92; in the assay with ETV6, 0.995.

For the sequence CCTCGG, the binding signal came out at 1.11 with ETV7 and 1.24 with ETV6.

For the sequence CTGGAA, the binding signal with ETV7 is 1.32; with ETV6 it was 1.34.

In the case of ATATCA, the binding signal with ETV7 is 1.13; in the assay with ETV6 it was 1.18.

Regarding ATGAGG, the binding signal with ETV7 worked out at 0.927; in the assay with ETV6 it was 0.954.

Turning to GCGGCA, the figures for the binding signal with ETV7 and with ETV6 were 0.981 and 0.931, respectively.

As for AGTCCC, the values for the binding signal in the assay with ETV7 and with ETV6 were 1.07 and 0.983, respectively.

For the sequence GTGTCT, the binding signal with ETV7 came to 0.926; in the assay with ETV6, 0.976.

With ACCGGT, the figures for the binding signal with ETV7 and with ETV6 were 0.815 and 0.932, respectively.

For GGTCAC, the results for the binding signal with ETV7 and with ETV6 were 0.939 and 0.993, respectively.

With CAGCTC, the binding signal in the assay with ETV7 came to 0.944; in the assay with ETV6, 0.989.

Regarding ATAGCC, the binding signal is 0.999 with ETV7 and 0.962 with ETV6.

In the case of CCCACC, the results for the binding signal with ETV7 and with ETV6 were 1.08 and 1.12, respectively.

With TGGGTA, the binding signal in the assay with ETV7 turned out to be 1.01; with ETV6, 0.921.

On to CGAACC, for which the binding signal with ETV7 was 1.11; in the assay with ETV6 it was 1.1.

In the case of TGGATC, the values for the binding signal with ETV7 and in the assay with ETV6 were 0.884 and 0.917, respectively.

With TACGGT, the binding signal with ETV7 was 1.08; in the assay with ETV6 it was 0.941.

As for CGACAT, the binding signal in the assay with ETV7 came to 1.23; in the assay with ETV6 it was 1.42.

Regarding ACCGCC, the binding signal with ETV7 was found to be 1.21; in the assay with ETV6 it was 1.26.

As to ATCCCG, the binding signal with ETV7 came out at 1.27; with ETV6, 1.52.

As for TGCAAG, the binding signal in the assay with ETV7 was 0.953; with ETV6, 0.99.

On to GCCACA, for which the binding signal was determined as 0.856 with ETV7 and 0.901 with ETV6.

GACTAT: the values for the binding signal with ETV7 and with ETV6 were 0.839 and 0.925, respectively.

Take AAGGGA: the values for the binding signal in the assay with ETV7 and with ETV6 were 0.889 and 0.961, respectively.

As to GTATGA, the binding signal with ETV7 came out at 0.964; with ETV6, 0.923.

In the case of TAGTAG, the binding signal with ETV7 stood at 0.994; with ETV6, 0.995.

On to CTACCG, for which the binding signal is 1.54 with ETV7 and 1.53 with ETV6.

Consider TCAATC, for which the binding signal in the assay with ETV7 was 1.01; in the assay with ETV6, 1.06.

In the case of ATAGGT, the binding signal with ETV7 turned out to be 1.17; with ETV6, 0.954.

On to CCCAAG, for which the binding signal amounted to 0.936 with ETV7 and 0.945 in the assay with ETV6.

Regarding CATTTG, the binding signal in the assay with ETV7 is 1.3; with ETV6, 1.21.

ACATGA: the values for the binding signal with ETV7 and with ETV6 were 0.884 and 0.948, respectively.

CCCTAG: the binding signal stood at 0.88 with ETV7 and 0.921 with ETV6.

For TCTATC, the binding signal with ETV7 amounted to 1.27; with ETV6, 1.32.

In the case of TCAGTA, the binding signal was determined as 0.948 with ETV7 and 0.931 with ETV6.

On to CTAAGG, for which the binding signal was 0.946 with ETV7 and 0.938 in the assay with ETV6.

Source of the values: PMC7862700.
